Assay results reported in PMC8825860.
Results are given in words; binding and its absence hold for the method and conditions named. In cells and extracts the contact can be indirect. Some results given as binding are weak or reduced against the parent protein; the word gives no strength.

Amino acid sequences for entries named in this document (tags omitted). A change or cut given only in a name is not applied to a line headed by its entry.
UniProt P15056: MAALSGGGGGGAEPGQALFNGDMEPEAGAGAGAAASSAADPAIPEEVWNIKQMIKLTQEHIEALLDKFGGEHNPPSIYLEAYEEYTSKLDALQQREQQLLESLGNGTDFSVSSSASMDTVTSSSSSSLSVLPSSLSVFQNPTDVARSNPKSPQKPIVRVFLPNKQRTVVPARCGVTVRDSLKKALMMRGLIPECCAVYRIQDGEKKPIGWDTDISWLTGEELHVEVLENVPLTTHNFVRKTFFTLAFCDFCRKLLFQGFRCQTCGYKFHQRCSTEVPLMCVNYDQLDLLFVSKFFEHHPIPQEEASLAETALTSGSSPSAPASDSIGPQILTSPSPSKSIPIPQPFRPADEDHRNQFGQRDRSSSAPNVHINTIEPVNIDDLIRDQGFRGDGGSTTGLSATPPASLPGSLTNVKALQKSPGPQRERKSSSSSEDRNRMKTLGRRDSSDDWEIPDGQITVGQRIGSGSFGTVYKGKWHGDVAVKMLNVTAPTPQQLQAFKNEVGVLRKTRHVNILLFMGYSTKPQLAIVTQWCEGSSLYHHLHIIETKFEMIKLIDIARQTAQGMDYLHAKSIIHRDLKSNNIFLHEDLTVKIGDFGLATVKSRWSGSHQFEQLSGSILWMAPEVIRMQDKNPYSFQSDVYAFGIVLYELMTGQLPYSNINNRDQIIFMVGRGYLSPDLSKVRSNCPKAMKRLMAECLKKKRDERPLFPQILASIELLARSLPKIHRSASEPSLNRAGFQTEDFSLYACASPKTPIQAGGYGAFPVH
UniProt P27695: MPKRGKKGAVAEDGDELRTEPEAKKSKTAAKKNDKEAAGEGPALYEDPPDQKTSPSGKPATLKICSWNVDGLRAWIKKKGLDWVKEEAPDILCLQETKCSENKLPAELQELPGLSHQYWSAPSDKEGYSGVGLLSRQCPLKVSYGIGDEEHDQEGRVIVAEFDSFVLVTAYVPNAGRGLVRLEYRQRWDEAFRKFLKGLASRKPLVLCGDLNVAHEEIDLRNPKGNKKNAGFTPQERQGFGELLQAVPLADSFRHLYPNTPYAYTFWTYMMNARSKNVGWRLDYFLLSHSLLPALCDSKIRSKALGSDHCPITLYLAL

Molecular target: BRAF V600E (human) (UniProt P15056)
Assay: co-IP; TPC-1 cells with a BRAF V600E Tet-on system; which protein was precipitated and the buffer are not told

- binding: binds
Substance: Redox factor-1 (Ref-1) (from UniProt P27695 1-318)
